The list shows a part of the results. Further columns of the screen follow, without active or inactive calls. The list favours compounds with an active or inconclusive main result. Words in brackets tell the shape of the fitted curve; partial curves, single points and poor fits give uncertain potencies.
Assay: qHTS Assay for Modulators of Lamin A Splicing
Conditions: HeLa LMNA splicing GFP/RFP minigene ratio, 48 h
In short: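 S3 HeLa cells stably expressing lamin A-EGFP splicing minigene plus DsRed2, 600 cells/well, 48 h compound exposure at 37C. Laser-scanning cytometry; analysed as GFP (500-530 nm)/RFP (575-640 nm) total intensity ratio; 0.5% DMSO vehicle.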

[1] = measured here: GFP splicing reporter channel
[2] = measured here: RFP viability control channel

Row | Compound | AC50 [1] | AC50 [2]
1 | Cc1cc(C)nc(/N=C(\N)Nc2ccc(S(=O)(=O)Nc3nccc(C)n3)cc2)n1 | 0.398 µM [falling, full curve] | 
2 | CCc1ccc(NC(=O)c2cc(S(=O)(=O)NC3CCCC3)ccc2F)cc1 | 11.2 µM [falling, partial curve] | 
3 | CC(C)c1ccccc1OCCCCCNCCO |  | 0.00316 µM [falling, full curve, poor fit]
4 | Clc1ccc(CSc2nnc(NC3=NCCCCC3)s2)cc1 |  | 35.5 µM [rising, single point]
5 | COc1ccc(C(=O)Oc2cccc(/C=N/NC(N)=S)c2)cc1 |  | 35.5 µM [rising, single point]
6 | Cc1cc(C)cc(Oc2coc3cc(OC(=O)c4cccnc4)ccc3c2=O)c1 |  | 35.5 µM [rising, single point]
7 | Cc1ccc(S(=O)(=O)N(CC(=O)Nc2ccccc2C(=O)O)c2cccc(Cl)c2C)cc1 | 0.355 µM [falling, partial curve, poor fit] | 31.6 µM [rising, single point]
8 | CCN[C@@H]1CN(CCCOC)S(=O)(=O)c2sc(S(N)(=O)=O)cc21 | 7.08 µM [falling, partial curve, poor fit] | 0.002 µM [falling, full curve, poor fit]
9 | O=C(Nc1ccc(Cl)cc1)N1CC=CCC1 | 5.62 µM [rising, single point] | 5.62 µM [rising, single point]
10 | COc1ccc(OCC(O)Cn2c(=N)n(Cc3ccccc3)c3ccccc32)cc1 (stereo unspecified) |  | 35.5 µM [rising, single point]
11 | CC(C(=O)OCc1nnc(-c2ccccc2)o1)N1C(=O)C2CCCCC2C1=O (stereo unspecified) | 1 µM [rising, full curve, poor fit] | 0.141 µM [rising, full curve, poor fit]
12 | O=C(Nc1ccccc1Oc1ccccc1)c1ccccc1F | 22.4 µM [rising, single point] | 
13 | Cc1ccc(S(=O)(=O)n2cc(-c3ccccc3)c(N)n2)cc1 |  | 28.2 µM [rising, single point]
14 | CCNc1ncc2nc(CCc3ccccc3)c(=O)n(Cc3ccc(F)cc3)c2n1 | 22.4 µM [falling, single point] | 11.2 µM [falling, partial curve]
15 | Cc1cccc(OCC(=O)Nc2cccc(C(=O)NCC(C)C)c2)c1 |  | 35.5 µM [rising, single point]
16 | CC(C(=O)Nc1cc([N+](=O)[O-])ccc1Cl)N1CCN(c2ccc(O)cc2)CC1 (stereo unspecified) |  | 12.6 µM [rising, single point]

A second format for some results above:
Row	Compound	AC50 [1]	AC50 [2]
1	Cc1cc(C)nc(/N=C(\N)Nc2ccc(S(=O)(=O)Nc3nccc(C)n3)cc2)n1	0.398 µM [falling, full curve]	
2	CCc1ccc(NC(=O)c2cc(S(=O)(=O)NC3CCCC3)ccc2F)cc1	11.2 µM [falling, partial curve]	
3	CC(C)c1ccccc1OCCCCCNCCO		0.00316 µM [falling, full curve, poor fit]
